Test results published in article PMC9582194, “The effect of helix-inducing constraints and downsizing upon a transcription block survival-derived functional cJun antagonist” (Cell Reports. Physical Science, 2022).
These are yes or no findings as the source states them, for the method shown.

Amino acid sequences for entries named in this document (tags omitted). Residues count along the entry.
UniProt P05412, residues 252-315: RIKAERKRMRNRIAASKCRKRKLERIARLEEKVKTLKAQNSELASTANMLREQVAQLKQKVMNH

Molecular target: cJun (60 amino acid construct encompassing the entire bZIP domain) (UniProt P05412)
Assay: CD thermal denaturation; peptide (5 μM) with cJun (5 μM); ellipticity at 222 nm, 1°C to 90°C; 20 mM potassium phosphate, 150 mM potassium fluoride, 2 mM TCEP, pH 7.4; two-state fit gives the Tm of the peptide-cJun heterodimer; duplicate experiments; both purified

- binding: no binding
Binder: MASLEQRAEELARENEELEKEAEELVVE (C-terminal amide (-NH2)) [HW7]
